Measured values from patent EP1893207B1, “USE OF SUBSTITUTED PIPERAZINE DERIVATIVES AND MORPHOLINE DERIVATIVES” (Merck Patent GmbH, priority 2005, dated 2006).

Test system: normale menschliche Melanocyten
Experiment: Melanin assay (melanin content of human melanocyte cultures, optical density at 405 nm)
Assay type: cell-based
Settings: 240 h incubation
Excerpt: Das Potential der Verbindungen nach Formeln Ia bis IIp als Hautaufheller-Wirkstoff wurde außerdem durch den Melanin-Versuch verifiziert. Der Effekt in Bezug auf den Melanin-Gehalt von menschlichen epidermalen Melanocyten-Kulturen dieser Verbindungen wurde ermittelt und mit der Referenzverbindung (Kojicsäure) verglichen.
Eine vorausgehende Cytotoxizitäts-Studie der Verbindungen nach Formeln Ia bis IIp wurde durchgeführt um drei nicht-cytotoxische Konzentrationen für den Melanin-Versuch zu ermitteln.
Melanin-Versuch: normale menschliche Melanocyten wurden in 24 Lochplatten (110.000 Zellen/Loch) kultiviert. Bei 50 % Zusammenfluss wurde das Kulturmedium mit oder ohne (Kontrollverbindung) Verbindungen der Formeln Ia bis IIp durch frisches Kulturmedium in drei verschiedenen Konzentrationen ersetzt.
Nach der Inkubation (240 Stunden) wurden die Monolayers gewaschen, die Zellen lysiert und das Melanin extrahiert. Es wurde die optische Dichte jedes experimentellen Punktes bei 405 nm gegen den Melanin-Standard gemessen. Tabelle 2 zeigt die Ergebnisse zwei ausgewählter Verbindungen im Vergleich zur Kojicsäure und der Kontrollverbindung (mit 100% Melaningehalt), wobei der ermittelte Melaningehalt (in %) bei jeweils drei verschiedenen Konzentrationen angegeben ist. Tab. 2 Melanin-Versuchsergebnisse

Oc1ccc(CN2CCN(Cc3ccccc3)CC2)c(O)c1 [Ib, 4-(4-Benzyl-piperazin-1-ylmethyl)-benzen-1,3-diol] gave a Proteine (Konzent. 0.8 µg/mL) of 0.486 mg/mL and a Proteine (Konzent. 4 µg/mL) of 0.508 mg/mL.
Oc1cccc(CN2CCN(Cc3ccccc3)CC2)c1O [Ia, 3-(4-Benzyl-piperazin-1-ylmethyl)-benzen-1,2-diol] was tested, and the Proteine (Konzent. 0.8 µg/mL) was 0.504 mg/mL.
CCN1CCN(Cc2ccc(O)cc2O)CC1 [Ie, 4-(4-Ethyl-piperazin-1-ylmethyl)-benzen-1,3-diol] was tested, and the Proteine (Konzent. 0.8 µg/mL) was 0.488 mg/mL, the Proteine (Konzent. 4 µg/mL) was 0.497 mg/mL and the Proteine (Konzent. 20 µg/mL) was 0.490 mg/mL.
Oc1ccc(CN2CCOCC2)c(O)c1 [Ih, 4-Morpholin-1-ylmethyl-benzen-1,3-diol] gave a Proteine (Konzent. 1.6 µg/mL) of 0.48 mg/mL, a Proteine (Konzent. 8 µg/mL) of 0.525 mg/mL and a Proteine (Konzent. 40 µg/mL) of 0.48 mg/mL.
O=c1cc(CO)occ1O [Kojicsäure, reference compound] was tested, and the Proteine (Konzent. 6.8 µg/mL) was 0.450 mg/mL, the Proteine (Konzent. 15.6 µg/mL) was 0.431 mg/mL and the Proteine (Konzent. 36 µg/mL) was 0.358 mg/mL.
